Source: the supplement of paper PMC10849652
The other results are listed elsewhere or left out.

Amino acid sequences for entries named in this document (tags omitted). A change or cut given only in a name is not applied to a line headed by its entry.
UniProt P07384: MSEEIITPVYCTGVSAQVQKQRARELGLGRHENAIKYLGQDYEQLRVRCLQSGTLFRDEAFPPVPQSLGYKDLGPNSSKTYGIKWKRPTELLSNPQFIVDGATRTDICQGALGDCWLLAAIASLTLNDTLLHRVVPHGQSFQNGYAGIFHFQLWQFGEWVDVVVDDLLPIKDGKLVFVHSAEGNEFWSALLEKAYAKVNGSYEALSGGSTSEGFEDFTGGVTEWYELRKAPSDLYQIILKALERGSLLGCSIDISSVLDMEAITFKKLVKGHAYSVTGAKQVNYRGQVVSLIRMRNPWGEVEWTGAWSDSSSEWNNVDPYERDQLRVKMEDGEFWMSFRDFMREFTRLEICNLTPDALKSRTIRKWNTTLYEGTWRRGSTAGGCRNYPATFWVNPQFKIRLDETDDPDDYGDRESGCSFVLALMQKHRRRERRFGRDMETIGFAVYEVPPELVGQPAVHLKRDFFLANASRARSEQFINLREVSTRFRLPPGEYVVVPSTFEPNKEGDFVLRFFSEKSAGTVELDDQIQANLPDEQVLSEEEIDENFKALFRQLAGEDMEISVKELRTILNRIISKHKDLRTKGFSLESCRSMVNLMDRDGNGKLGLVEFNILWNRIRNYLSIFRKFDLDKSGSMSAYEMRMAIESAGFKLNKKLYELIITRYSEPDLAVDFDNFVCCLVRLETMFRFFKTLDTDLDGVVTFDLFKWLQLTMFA
UniProt Q9H3H3: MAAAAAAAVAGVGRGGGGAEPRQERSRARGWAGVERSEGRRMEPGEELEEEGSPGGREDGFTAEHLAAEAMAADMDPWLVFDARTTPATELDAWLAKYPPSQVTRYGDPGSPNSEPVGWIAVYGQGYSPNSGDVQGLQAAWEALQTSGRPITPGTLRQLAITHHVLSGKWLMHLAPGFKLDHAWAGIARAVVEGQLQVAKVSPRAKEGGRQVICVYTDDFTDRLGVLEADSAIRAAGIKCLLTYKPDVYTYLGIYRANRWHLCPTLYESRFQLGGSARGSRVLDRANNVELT
UniProt Q8N6N3: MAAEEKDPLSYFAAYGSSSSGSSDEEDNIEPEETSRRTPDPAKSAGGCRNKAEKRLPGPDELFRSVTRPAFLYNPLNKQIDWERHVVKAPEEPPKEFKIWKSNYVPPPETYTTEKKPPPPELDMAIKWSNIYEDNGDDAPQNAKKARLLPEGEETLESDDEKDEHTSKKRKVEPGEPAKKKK
UniProt Q9Y6W3: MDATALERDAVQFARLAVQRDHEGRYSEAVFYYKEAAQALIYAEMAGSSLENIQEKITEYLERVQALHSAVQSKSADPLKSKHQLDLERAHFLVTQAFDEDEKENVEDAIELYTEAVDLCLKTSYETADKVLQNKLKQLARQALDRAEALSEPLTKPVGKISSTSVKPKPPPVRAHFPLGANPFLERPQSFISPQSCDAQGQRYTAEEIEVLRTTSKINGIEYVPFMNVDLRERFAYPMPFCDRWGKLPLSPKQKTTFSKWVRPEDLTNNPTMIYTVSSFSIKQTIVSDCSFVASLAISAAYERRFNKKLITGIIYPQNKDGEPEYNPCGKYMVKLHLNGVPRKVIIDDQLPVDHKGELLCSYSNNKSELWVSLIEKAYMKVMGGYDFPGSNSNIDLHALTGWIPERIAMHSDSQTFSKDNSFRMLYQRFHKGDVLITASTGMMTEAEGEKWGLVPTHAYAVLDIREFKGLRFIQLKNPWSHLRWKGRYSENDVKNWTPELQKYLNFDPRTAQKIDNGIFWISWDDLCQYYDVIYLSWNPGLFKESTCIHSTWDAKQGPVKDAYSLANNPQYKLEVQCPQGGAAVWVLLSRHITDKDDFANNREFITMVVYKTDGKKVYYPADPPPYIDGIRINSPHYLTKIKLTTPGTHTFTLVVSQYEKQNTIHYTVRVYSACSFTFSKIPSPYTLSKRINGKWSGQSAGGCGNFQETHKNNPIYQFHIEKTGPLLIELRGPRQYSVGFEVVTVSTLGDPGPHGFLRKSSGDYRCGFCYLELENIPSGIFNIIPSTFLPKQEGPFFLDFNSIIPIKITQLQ
UniProt Q49AR2: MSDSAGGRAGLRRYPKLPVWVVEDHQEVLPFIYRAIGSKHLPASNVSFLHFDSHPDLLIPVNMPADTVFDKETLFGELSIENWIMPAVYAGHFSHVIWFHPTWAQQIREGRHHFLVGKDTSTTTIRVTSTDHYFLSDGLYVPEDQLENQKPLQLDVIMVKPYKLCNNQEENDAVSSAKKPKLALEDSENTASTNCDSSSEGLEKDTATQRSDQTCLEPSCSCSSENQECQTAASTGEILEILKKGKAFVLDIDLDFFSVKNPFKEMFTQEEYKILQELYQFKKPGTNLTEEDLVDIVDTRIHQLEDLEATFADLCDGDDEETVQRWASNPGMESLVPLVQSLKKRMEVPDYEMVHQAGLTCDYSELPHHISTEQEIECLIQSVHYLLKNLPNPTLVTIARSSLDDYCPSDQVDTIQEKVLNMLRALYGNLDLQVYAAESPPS
UniProt O14523: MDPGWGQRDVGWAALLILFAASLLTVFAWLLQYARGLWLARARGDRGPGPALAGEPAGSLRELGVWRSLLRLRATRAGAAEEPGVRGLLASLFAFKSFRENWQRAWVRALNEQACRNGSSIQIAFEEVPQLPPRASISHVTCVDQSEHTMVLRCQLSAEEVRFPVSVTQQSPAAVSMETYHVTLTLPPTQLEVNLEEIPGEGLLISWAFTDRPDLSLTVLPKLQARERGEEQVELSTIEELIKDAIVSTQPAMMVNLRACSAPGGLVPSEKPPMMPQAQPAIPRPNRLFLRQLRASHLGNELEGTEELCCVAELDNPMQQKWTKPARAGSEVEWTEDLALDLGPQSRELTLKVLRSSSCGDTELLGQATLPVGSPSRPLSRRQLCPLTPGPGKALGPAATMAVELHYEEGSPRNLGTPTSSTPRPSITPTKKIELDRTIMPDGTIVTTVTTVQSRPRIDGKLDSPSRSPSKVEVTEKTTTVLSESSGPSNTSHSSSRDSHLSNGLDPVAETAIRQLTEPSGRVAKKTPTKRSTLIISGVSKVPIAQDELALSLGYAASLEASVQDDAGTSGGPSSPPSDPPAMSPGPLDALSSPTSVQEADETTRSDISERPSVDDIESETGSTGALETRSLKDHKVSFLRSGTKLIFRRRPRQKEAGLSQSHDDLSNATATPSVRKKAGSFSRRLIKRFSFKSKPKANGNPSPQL
UniProt Q8N5S9: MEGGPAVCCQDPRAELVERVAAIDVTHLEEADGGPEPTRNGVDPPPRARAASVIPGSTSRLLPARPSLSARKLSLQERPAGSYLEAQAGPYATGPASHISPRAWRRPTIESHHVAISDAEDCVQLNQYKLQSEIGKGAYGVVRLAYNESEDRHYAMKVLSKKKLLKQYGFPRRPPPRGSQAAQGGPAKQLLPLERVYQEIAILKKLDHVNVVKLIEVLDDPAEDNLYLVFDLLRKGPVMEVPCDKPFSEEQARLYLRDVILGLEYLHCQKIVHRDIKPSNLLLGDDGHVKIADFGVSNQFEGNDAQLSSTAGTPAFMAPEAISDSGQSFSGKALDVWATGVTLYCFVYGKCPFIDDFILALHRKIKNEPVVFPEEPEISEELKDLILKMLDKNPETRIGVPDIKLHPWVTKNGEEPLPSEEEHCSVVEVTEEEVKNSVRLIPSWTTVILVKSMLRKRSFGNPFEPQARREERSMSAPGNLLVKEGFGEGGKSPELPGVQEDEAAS
UniProt Q9BVC5: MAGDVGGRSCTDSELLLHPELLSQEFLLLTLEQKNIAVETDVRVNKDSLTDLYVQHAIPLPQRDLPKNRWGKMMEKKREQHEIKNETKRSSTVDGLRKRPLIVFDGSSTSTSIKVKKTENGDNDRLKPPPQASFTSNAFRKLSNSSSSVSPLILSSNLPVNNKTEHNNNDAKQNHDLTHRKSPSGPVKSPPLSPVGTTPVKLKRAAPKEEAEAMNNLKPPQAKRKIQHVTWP
UniProt P01024, whole entry, looked up: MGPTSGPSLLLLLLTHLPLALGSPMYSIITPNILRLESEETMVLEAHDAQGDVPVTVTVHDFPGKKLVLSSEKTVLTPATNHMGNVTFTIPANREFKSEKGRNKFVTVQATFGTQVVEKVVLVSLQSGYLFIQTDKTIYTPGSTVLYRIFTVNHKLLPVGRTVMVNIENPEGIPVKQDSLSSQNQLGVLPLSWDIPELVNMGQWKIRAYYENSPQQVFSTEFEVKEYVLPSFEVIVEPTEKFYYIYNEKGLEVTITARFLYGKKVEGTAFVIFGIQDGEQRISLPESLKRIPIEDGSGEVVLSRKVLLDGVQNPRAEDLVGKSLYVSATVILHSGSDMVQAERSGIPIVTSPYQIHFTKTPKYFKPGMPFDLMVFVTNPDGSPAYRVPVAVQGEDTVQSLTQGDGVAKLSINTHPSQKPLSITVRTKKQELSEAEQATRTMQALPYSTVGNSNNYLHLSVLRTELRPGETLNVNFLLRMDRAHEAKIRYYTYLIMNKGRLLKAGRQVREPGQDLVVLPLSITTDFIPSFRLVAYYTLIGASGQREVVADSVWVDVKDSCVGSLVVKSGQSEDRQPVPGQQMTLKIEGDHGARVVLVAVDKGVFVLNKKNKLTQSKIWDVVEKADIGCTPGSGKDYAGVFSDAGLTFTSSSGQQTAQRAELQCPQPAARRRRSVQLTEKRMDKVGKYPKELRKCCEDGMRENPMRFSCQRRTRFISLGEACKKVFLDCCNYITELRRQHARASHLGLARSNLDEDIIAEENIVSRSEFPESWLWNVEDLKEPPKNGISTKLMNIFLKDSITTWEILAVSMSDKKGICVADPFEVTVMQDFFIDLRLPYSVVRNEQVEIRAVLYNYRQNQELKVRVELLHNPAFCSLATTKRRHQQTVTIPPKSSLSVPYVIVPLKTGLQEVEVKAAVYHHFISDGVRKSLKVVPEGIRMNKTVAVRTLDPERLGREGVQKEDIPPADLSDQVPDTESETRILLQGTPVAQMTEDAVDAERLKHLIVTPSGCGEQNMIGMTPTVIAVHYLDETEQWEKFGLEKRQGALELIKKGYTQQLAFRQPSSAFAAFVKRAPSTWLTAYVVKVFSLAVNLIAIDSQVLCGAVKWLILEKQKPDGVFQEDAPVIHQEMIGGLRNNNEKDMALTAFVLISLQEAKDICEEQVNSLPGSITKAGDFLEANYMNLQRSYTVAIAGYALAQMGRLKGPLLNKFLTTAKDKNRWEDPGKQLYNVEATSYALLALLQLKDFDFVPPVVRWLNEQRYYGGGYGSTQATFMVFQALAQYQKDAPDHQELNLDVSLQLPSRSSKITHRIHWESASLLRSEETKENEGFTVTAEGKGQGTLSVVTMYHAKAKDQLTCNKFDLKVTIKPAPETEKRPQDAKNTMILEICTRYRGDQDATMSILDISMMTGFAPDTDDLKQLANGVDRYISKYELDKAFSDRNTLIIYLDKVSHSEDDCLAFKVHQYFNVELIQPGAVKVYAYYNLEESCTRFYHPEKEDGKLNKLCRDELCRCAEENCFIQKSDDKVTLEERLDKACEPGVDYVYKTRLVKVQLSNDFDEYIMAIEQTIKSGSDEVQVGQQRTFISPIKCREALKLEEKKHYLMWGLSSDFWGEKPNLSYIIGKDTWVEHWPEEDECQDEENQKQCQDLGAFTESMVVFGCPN
UniProt P27824: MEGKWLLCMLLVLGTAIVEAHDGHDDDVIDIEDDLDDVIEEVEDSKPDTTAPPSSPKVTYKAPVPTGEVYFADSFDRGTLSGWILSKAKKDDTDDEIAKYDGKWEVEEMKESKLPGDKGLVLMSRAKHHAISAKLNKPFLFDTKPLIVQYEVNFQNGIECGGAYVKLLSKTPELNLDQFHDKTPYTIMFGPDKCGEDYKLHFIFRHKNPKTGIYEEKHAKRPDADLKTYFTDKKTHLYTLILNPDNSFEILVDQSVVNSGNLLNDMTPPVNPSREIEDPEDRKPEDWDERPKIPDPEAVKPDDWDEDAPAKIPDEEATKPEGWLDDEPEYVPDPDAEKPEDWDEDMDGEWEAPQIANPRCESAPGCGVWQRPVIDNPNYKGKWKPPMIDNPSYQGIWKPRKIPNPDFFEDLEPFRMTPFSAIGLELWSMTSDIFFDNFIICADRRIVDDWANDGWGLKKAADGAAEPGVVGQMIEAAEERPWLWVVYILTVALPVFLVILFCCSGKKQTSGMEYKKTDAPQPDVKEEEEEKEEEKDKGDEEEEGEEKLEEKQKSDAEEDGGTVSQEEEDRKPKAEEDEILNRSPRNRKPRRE
UniProt Q13895: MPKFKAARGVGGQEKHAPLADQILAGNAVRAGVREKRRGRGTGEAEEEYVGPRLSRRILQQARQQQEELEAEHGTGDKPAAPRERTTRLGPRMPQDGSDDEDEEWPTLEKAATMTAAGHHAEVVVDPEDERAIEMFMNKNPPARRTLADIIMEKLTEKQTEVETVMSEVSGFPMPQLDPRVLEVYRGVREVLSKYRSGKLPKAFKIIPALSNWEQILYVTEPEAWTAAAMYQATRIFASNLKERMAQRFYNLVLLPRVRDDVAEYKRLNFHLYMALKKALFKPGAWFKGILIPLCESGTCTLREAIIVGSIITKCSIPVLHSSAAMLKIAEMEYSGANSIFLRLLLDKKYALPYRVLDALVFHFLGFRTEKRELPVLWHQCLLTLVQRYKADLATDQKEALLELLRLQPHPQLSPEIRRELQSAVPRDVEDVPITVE

Columns and labels:
Experiment in all cases: log2 fold change, soluble protein after heating vs DMSO (PISA); higher = thermal stabilisation; K562 lysate, 10 uM; active = over 0.2 and 3.5 SD of the protein, either way, in both replicates (recomputed)
[1] = compound: CN1CC[C@H](c2c(O)cc(O)c3c(=O)cc(-c4ccccc4Cl)oc23)[C@H](O)C1 [alvocidib]
How it was run: (§1)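 Log-two fold change in thermal stability relative to solvent controls is reported from duplicates. For each sample, crude K562 extract from dounce-homogenised pellets in PBS pH 7.4 with 1 mM MgCl2, at 1 mg/mL protein, was treated with 10 μM compound for 30 min. Aliquots heated for 3 min across 48°C-58°C were pooled, brought to 0.5% NP-40 at 4°C and cleared at 21,000xg for 90 min. The supernatant was quantified by TMTpro 16plex LC-MS/MS with channel sums equalised.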

[2] = compound: CN1CCc2c(c3ccccc3n2Cc2ccc(C(=O)NO)cc2)C1 [Tubastatin A]
How it was run: as §1

[3] = compound: CNC(=O)C1=CC=CC=C1NC2=NC(=NC=C2Cl)NC3=C(C=C(C=C3)N4CCOCC4)OC
How it was run: as §1

[4] = compound: CNC(=O)c1ccc(Nc2ncc(C(F)(F)F)c(NCc3nccnc3N(C)S(C)(=O)=O)n2)cc1 [defactinib]
How it was run: as §1

[5] = compound: CNc1nc(-c2ccc3c(N)n[nH]c3c2)cc(N2C[C@@H](C(=O)NC3CCCCC3)CC[C@H]2C)n1
How it was run: as §1

[6] = compound: COC(=O)N[C@@H](C)CNc1nccc(-c2cn(C(C)C)nc2-c2cc(Cl)cc(NS(C)(=O)=O)c2F)n1 [encorafenib]
How it was run: as §1

[7] = compound: COC(=O)[C@H](CCSC)NC(=O)C1=C(C=C(C=C1)NC[C@H](CS)N)C2=CC=CC=C2
How it was run: as §1

[8] = compound: COc1cc(Nc2ncc3c(n2)-c2ccc(Cl)cc2C(c2c(F)cccc2OC)=NC3)ccc1C(=O)O [alisertib]
How it was run: as §1

[9] = compound: COc1cc2nc(-c3cc(F)ccc3O)nc(N[C@@H]3CNC[C@H]3C(C)(C)O)c2cc1OC
How it was run: as §1

[10] = compound: COc1cc2ncnc(Nc3ccc(F)c(Cl)c3)c2cc1OCCCN1CCOCC1 [gefitinib]
How it was run: as §1

Target | log2 fold change [1] | log2 fold change [2] | log2 fold change [3] | log2 fold change [4] | log2 fold change [5] | log2 fold change [6] | log2 fold change [7] | log2 fold change [8] | log2 fold change [9] | log2 fold change [10]
C1D (UniProt Q13901) | inactive: 0.028 | inactive: -0.04 | inactive: -0.032 | inactive: 0.023 | inactive: 0.029 | inactive: -0.043 | inactive: -0.036 | inactive: -0.051 | inactive: 0.01 | inactive: -0.021
CAPN1 (UniProt P07384) | inactive: -0.041 | inactive: 0.007 | inactive: 0.002 | inactive: 0.032 | inactive: 0.011 | inactive: 0.024 | inactive: -0.103 | inactive: 0.019 | inactive: -0.012 | inactive: 0
C1orf131 isoform 5 (UniProt Q8NDD1) | inactive: -0.118 | inactive: -0.036 | inactive: 0.03 | inactive: 0.013 | inactive: 0.148 | inactive: 0.127 | inactive: 0.02 | inactive: 0.148 | inactive: -0.038 | inactive: 0.111
C11orf68 isoform 3 (UniProt Q9H3H3) | inactive: -0.045 | inactive: 0.001 | inactive: 0.016 | inactive: -0.031 | inactive: 0.013 | inactive: 0.006 | inactive: -0.081 | inactive: 0.008 | inactive: 0 | inactive: 0.02
CAMK1 (UniProt Q14012) | inactive: -0.074 | inactive: 0 | inactive: 0.067 | inactive: 0.04 | inactive: -0.036 | inactive: -0.054 | inactive: -0.032 | inactive: 0.016 | inactive: 0.029 | inactive: -0.01
C1orf52 (UniProt Q8N6N3) | inactive: -0.008 | inactive: 0.025 | inactive: 0 | inactive: 0.002 | inactive: 0.037 | inactive: -0.006 | inactive: -0.034 | inactive: -0.027 | inactive: 0.01 | inactive: -0.02
CAPN7 (UniProt Q9Y6W3) | inactive: -0.015 | inactive: -0.021 | inactive: 0.002 | inactive: 0.033 | inactive: -0.032 | inactive: 0.02 | inactive: -0.025 | inactive: -0.015 | inactive: 0.007 | inactive: -0.035
C11orf98 (UniProt E9PRG8) | inactive: 0.003 | inactive: 0.064 | inactive: -0.003 | inactive: -0.023 | inactive: 0.091 | inactive: 0.036 | inactive: -0.042 | inactive: -0.013 | inactive: 0.014 | inactive: -0.004
C12orf29 (UniProt Q8N999) | inactive: -0.047 | inactive: -0.039 | inactive: 0.011 | inactive: -0.016 | inactive: 0.034 | inactive: 0.042 | inactive: 0.032 | inactive: -0.02 | inactive: -0.023 | inactive: 0.065
CAMSAP1 isoform 3 (UniProt Q5T5Y3) | inactive: 0.042 | inactive: -0.093 | inactive: 0.02 | inactive: -0.027 | inactive: -0.021 | inactive: 0.024 | inactive: -0.003 | inactive: -0.03 | inactive: -0.033 | inactive: -0.041
C5orf22 (UniProt Q49AR2) | inactive: 0.003 | inactive: 0.011 | inactive: -0.005 | inactive: -0.012 | inactive: -0.008 | inactive: -0.005 | inactive: 0.033 | inactive: 0 | inactive: -0.007 | inactive: 0.021
C17orf75 (UniProt Q9HAS0) | inactive: -0.042 | inactive: -0.084 | inactive: 0.036 | inactive: -0.026 | inactive: -0.025 | inactive: 0.045 | inactive: 0.054 | inactive: -0.006 | inactive: -0.001 | inactive: 0.009
C2CD2L (UniProt O14523) | inactive: 0.002 | inactive: 0.011 | inactive: -0.074 | inactive: 0.015 | inactive: -0.062 | inactive: 0.055 | inactive: -0.221 | inactive: -0.036 | inactive: -0.013 | inactive: 0.016
CAMKK1 isoform 2 (UniProt Q8N5S9) | inactive: 0.088 | inactive: -0.167 | active: 0.305 | inactive: 0.051 | inactive: -0.118 | inactive: 0.014 | inactive: 0.126 | inactive: -0.033 | inactive: -0.048 | inactive: 0.03
C9orf64 (UniProt Q5T6V5) | inactive: 0.02 | inactive: -0.036 | inactive: -0.015 | inactive: -0.026 | inactive: -0.045 | inactive: 0.034 | inactive: -0.029 | inactive: 0.012 | inactive: -0.006 | inactive: -0.006
C2orf49 (UniProt Q9BVC5) | inactive: 0.004 | inactive: -0.02 | inactive: 0.049 | inactive: 0 | inactive: -0.091 | inactive: -0.017 | inactive: -0.112 | inactive: 0.012 | inactive: -0.007 | inactive: -0.04
C1QBP (UniProt Q07021) | inactive: 0.025 | inactive: 0.133 | inactive: 0.01 | inactive: 0.023 | inactive: -0.011 | inactive: -0.006 | inactive: -0.065 | inactive: 0.033 | inactive: -0.018 | inactive: -0.001
C3 (UniProt P01024) | inactive: -0.027 | inactive: 0.051 | inactive: 0.041 | inactive: 0.01 | inactive: 0.008 | inactive: 0 | inactive: 0.054 | inactive: -0.031 | inactive: -0.005 | inactive: 0.05
CANX isoform 2 (UniProt P27824) | inactive: -0.024 | inactive: 0.05 | inactive: -0.006 | inactive: 0.002 | inactive: -0.003 | inactive: 0.027 | inactive: -0.015 | inactive: -0.008 | inactive: 0.023 | inactive: 0.008
CARD11 (UniProt Q9BXL7) | inactive: 0.073 | inactive: -0.023 | inactive: 0.022 | inactive: -0.005 | inactive: -0.029 | inactive: -0.021 | inactive: 0.072 | inactive: -0.028 | inactive: 0.025 | inactive: 0.014
C8orf33 isoform 2 (UniProt Q9H7E9) | inactive: 0.013 | inactive: -0.103 | inactive: 0.082 | inactive: 0.033 | inactive: 0.13 | inactive: 0.048 | inactive: -0.244 | inactive: -0.041 | inactive: -0.082 | inactive: 0.011
C5orf30 (UniProt Q96GV9) | inactive: 0.052 | inactive: 0.11 | inactive: -0.004 | inactive: -0.017 | inactive: -0.137 | inactive: -0.035 | inactive: 0.094 | inactive: -0.059 | – | inactive: -0.042
BYSL (UniProt Q13895) | inactive: 0.014 | inactive: -0.055 | inactive: 0.008 | inactive: 0.007 | inactive: -0.027 | inactive: 0.007 | inactive: 0.072 | inactive: -0.002 | inactive: -0.004 | inactive: -0.013
CAMK2G isoform 8 (UniProt Q13555) | active: 0.334 | inactive: -0.098 | inactive: 0.223 | inactive: 0.006 | inactive: 0.034 | inactive: -0.199 | inactive: -0.007 | inactive: -0.013 | inactive: 0.144 | inactive: -0.013
C19orf54 (UniProt Q5BKX5) | inactive: -0.032 | inactive: 0.004 | inactive: 0.048 | inactive: -0.039 | inactive: 0.023 | inactive: 0.024 | inactive: 0.151 | inactive: -0.099 | inactive: 0.069 | inactive: 0.08

Single values from the list.
For log2 fold change [9], C1D (UniProt Q13901) shows inactive: 0.01
For log2 fold change [1], C19orf54 (UniProt Q5BKX5) shows inactive: -0.032
